# Measurements as given in PMC11790884.
# For at least one entry, the source does not settle the construct or the ends of the probe. A weaker result is weaker than the reference pair of the same experiment. At least one verdict rests on a figure or table, not on a statement of the authors.
# Test system: c-myc
# Assay: SPR
# Details: SPR (OpenSPR, streptavidin sensor): 20 mM HEPES, 150 mM NaCl, pH 7.4, 20 ul/min, 3% BSA block, described for DHA-oligo, c-myc conditions and temperature not stated, recombinant protein, single-stranded DNA
sequence,measurement,setting,value
TCAGCCTCGGAGGCATCAGC [PD-L1p9C (biotinylated)],binding result,"with DHA (inhibits c-myc recruitment, P = 0.0002)",binds more weakly
same,binding result,without DHA,binds
